This assay deals with MalT (wild type), N-terminally His-tagged (Escherichia coli) (UniProt P06993). The assay is described as follows: condition: only without maltotriose (0.4 mM ATP or 0.1 mM ADP); SEC; Superdex 200 Increase 10/300 GL, 4 °C, in the presence of ADP; MalT (buffer A, 0.1 mM ADP) and MalY (buffer TKCl, 10 μM PLP) each alone, or incubated at a 1:1 molar ratio on ice for 30 min and run in buffer TKCl with 0.1 mM ADP and 10 μM PLP; both purified.

The record followed here is article PMC10427625, “Structural basis for negative regulation of the Escherichia coli maltose system” (Nature Communications, 2023).

No constants are given. Whether binding was seen depends on the method and setting. Sequences can lack the tags named with a protein.

B1: MalT (wild type), N-terminally His-tagged (natural protein, Escherichia coli, UniProt P06993 1-901, looked up)
chain: MLIPSKLSRPVRLDHTVVRERLLAKLSGANNFRLALITSPAGYGKTTLISQWAAGKNDIGWYSLDEGDNQQERFASYLIAAVQQATNGHCAICETMAQKRQYASLTSLFAQLFIELAEWHSPLYLVIDDYHLITNPVIHESMRFFIRHQPENLTLVVLSRNLPQLGIANLRVRDQLLEIGSQQLAFTHQEAKQFFDCRLSSPIEAAESSRICDDVSGWATALQLIALSARQNTHSAHKSARRLAGINASHLSDYLVDEVLDNVDLATRHFLLKSAILRSMNDALITRVTGEENGQMRLEEIERQGLFLQRMDDTGEWFCYHPLFGNFLRQRCQWELAAELPEIHRAAAESWMAQGFPSEAIHHALAAGDALMLRDILLNHAWSLFNHSELSLLEESLKALPWDSLLENPQLVLLQAWLMQSQHRYGEVNTLLARAEHEIKDIREDTMHAEFNALRAQVAINDGNPDEAERLAKLALEELPPGWFYSRIVATSVLGEVLHCKGELTRSLALMQQTEQMARQHDVWHYALWSLIQQSEILFAQGFLQTAWETQEKAFQLINEQHLEQLPMHEFLVRIRAQLLWAWARLDEAEASARSGIEVLSSYQPQQQLQCLAMLIQCSLARGDLDNARSQLNRLENLLGNGKYHSDWISNANKVRVIYWQMTGDKAAAANWLRHTAKPEFANNHFLQGQWRNIARAQILLGEFEPAEIVLEELNENARSLRLMSDLNRNLLLLNQLYWQAGRKSDAQRVLLDALKLANRTGFISHFVIEGEAMAQQLRQLIQLNTLPELEQHRAQRILREINQHHRHKFAHFDENFVERLLNHPEVPELIRTSPLTQREWQVLGLIYSGYSNEQIAGELEVAATTIKTHIRNLYQKLGVAHRQDAVQHAQQLLKMMGYGV
notes: Purified with 0.1 mM ADP or 0.4 mM ATP; the elution at 103 kDa fits the whole protein; In PDB 8BOB only residues 1-423 are well defined; also called WT MalT; MalT WT; source: E. coli BL21 (DE3) ΔmalT220, purified (Ni Sepharose, gel filtration)
Take B1: the binding result is given as “no binding”.
